{"source": "the supplement of paper PMC8728848", "binders": {"B1": {"name": "PX9961K-bvu-480-28-480 (Bacteroides vulgatus) (protein)", "chain": "NKIPTTMAFRTVTDVDNAVNGLYDLMSGSGYYGAAMFAYGDMKGDDMQSSEESGVCNTCYMFNHRPNSLNAGSLWGRPFYILREAWNILNAIAEGKIESGDEKKLNALKGETMAVIALCQFDLTRCFGYPYTKDKGASLGAPLIDHLVGTYENPPRSTVAQAYDFIIETLEEAVTLMSEEKNNGRMNKYAARALLARIYLYHDDNRKAFDLADQLIKDADTSGSYALYPHEKYVAAWSVEAKFGSESFFEIANSVDDTPGRDSWGYLLNWYGYQKGFVTQKYAEQMLADPGDVRGHLLEENKYAGKTVWWLYKLRGTDLKTAPLECNNVVLRLSEVYLIAAEAGCKLGGDAAVQGLGYLNEIVKRGNPDNEVTMADYTLDRVLDERSKELVGEGHRFFDLLRNGKTIVRKGGYHLPSVDEEVDWDFYKCVLPIPEDQFIFSPEMEQNPGYPKN"}}, "experiment_in_all_cases": "glycan array binding signal (z-score within array); higher = stronger binding", "details_in_all_cases": "glycan notation: IUPAC condensed, linker removed", "key": {"[1]": {"molecular_target": "GlcNAc(b1-4)GlcNAc(b1-4)GlcNAc(b1-4)GlcNAc(b1-4)GlcNAc(b1-4)GlcNAc", "how_it_was_run": "(§1)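 Glycan array binding is given as a within-array Z-score, which can be read as non-binding when negative. The arrays, 3228 of them, came from the Consortium for Functional Glycomics database and were retained only where the protein sequence was available. Z-scores were averaged across arrays of the same protein sequence at different concentrations or buffers and across linkers.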"}, "[2]": {"molecular_target": "GlcNAc(b1-4)[GlcNAc(b1-6)]GalNAc", "how_it_was_run": "as §1"}, "[3]": {"molecular_target": "GlcNAc(b1-6)Gal(b1-4)GlcNAc", "how_it_was_run": "as §1"}, "GlcNAc(b1-6)GalNAc": {"molecular_target": "GlcNAc(b1-6)GalNAc", "how_it_was_run": "as §1"}, "[4]": {"molecular_target": "GlcNAc6S(b1-3)Gal(b1-4)GlcNAc", "how_it_was_run": "as §1"}, "Kdn(a2-3)Gal(b1-3)GalNAc": {"molecular_target": "Kdn(a2-3)Gal(b1-3)GalNAc", "how_it_was_run": "as §1"}, "Kdn(a2-3)Gal(b1-3)GlcNAc": {"molecular_target": "Kdn(a2-3)Gal(b1-3)GlcNAc", "how_it_was_run": "as §1"}, "Kdn(a2-3)Gal(b1-4)Glc": {"molecular_target": "Kdn(a2-3)Gal(b1-4)Glc", "how_it_was_run": "as §1"}, "Kdn(a2-3)Gal(b1-4)GlcNAc": {"molecular_target": "Kdn(a2-3)Gal(b1-4)GlcNAc", "how_it_was_run": "as §1"}, "[5]": {"molecular_target": "Kdn(a2-3)Gal(b1-4)[Fuc(a1-3)]GlcNAc", "how_it_was_run": "as §1"}, "Kdn(a2-6)Gal(b1-4)GlcNAc": {"molecular_target": "Kdn(a2-6)Gal(b1-4)GlcNAc", "how_it_was_run": "as §1"}, "[6]": {"molecular_target": "Man(a1-2)Man(a1-2)Man(a1-3)Man", "how_it_was_run": "as §1"}, "[7]": {"molecular_target": "Man(a1-2)Man(a1-2)Man(a1-6)[Man(a1-3)]Man", "how_it_was_run": "as §1"}, "Man(a1-2)Man(a1-3)Man": {"molecular_target": "Man(a1-2)Man(a1-3)Man", "how_it_was_run": "as §1"}, "[8]": {"molecular_target": "Man(a1-2)Man(a1-3)[Man(a1-2)Man(a1-6)]Man", "how_it_was_run": "as §1"}, "[9]": {"molecular_target": "Man(a1-2)Man(a1-3)[Man(a1-2)Man(a1-6)]Man(a1-6)[Man(a1-2)Man(a1-2)Man(a1-3)]Man", "how_it_was_run": "as §1"}, "[10]": {"molecular_target": "Man(a1-2)Man(a1-3)[Man(a1-2)Man(a1-6)]Man(a1-6)[Man(a1-2)Man(a1-2)Man(a1-3)]Man(b1-4)GlcNAc(b1-4)GlcNAc", "how_it_was_run": "as §1"}, "[11]": {"molecular_target": "Man(a1-2)Man(a1-3)[Man(a1-6)]Man(a1-6)[Man(a1-2)Man(a1-3)]Man(b1-4)GlcNAc(b1-4)GlcNAc", "how_it_was_run": "as §1"}, "[12]": {"molecular_target": "Man(a1-2)Man(a1-6)[Man(a1-3)]Man(a1-6)[Man(a1-2)Man(a1-2)Man(a1-3)]Man", "how_it_was_run": "as §1"}, "[13]": {"molecular_target": "Man(a1-2)Man(a1-6)[Man(a1-3)]Man(a1-6)[Man(a1-2)Man(a1-2)Man(a1-3)]Man(b1-4)GlcNAc(b1-4)GlcNAc", "how_it_was_run": "as §1"}, "Man(a1-3)[Man(a1-6)]Man": {"molecular_target": "Man(a1-3)[Man(a1-6)]Man", "how_it_was_run": "as §1"}, "[14]": {"molecular_target": "Man(a1-3)[Man(a1-6)]Man(a1-6)[Man(a1-2)Man(a1-3)]Man(b1-4)GlcNAc(b1-4)GlcNAc", "how_it_was_run": "as §1"}, "[15]": {"molecular_target": "Man(a1-3)[Man(a1-6)]Man(a1-6)[Man(a1-3)]Man", "how_it_was_run": "as §1"}, "[16]": {"molecular_target": "Man(a1-3)[Man(a1-6)]Man(a1-6)[Man(a1-3)]Man(b1-4)GlcNAc(b1-4)GlcNAc", "how_it_was_run": "as §1"}, "[17]": {"molecular_target": "Man(a1-3)[Man(a1-6)]Man(b1-4)GlcNAc(b1-4)GlcNAc", "how_it_was_run": "as §1"}, "[18]": {"molecular_target": "Man(a1-3)[Man(a1-6)]Man(b1-4)GlcNAc(b1-4)[Fuc(a1-6)]GlcNAc", "how_it_was_run": "as §1"}, "Man(a1-6)Man": {"molecular_target": "Man(a1-6)Man", "how_it_was_run": "as §1"}, "Man(b1-4)GlcNAc": {"molecular_target": "Man(b1-4)GlcNAc", "how_it_was_run": "as §1"}, "MurNAc(b1-4)GlcNAc": {"molecular_target": "MurNAc(b1-4)GlcNAc", "how_it_was_run": "as §1"}, "Neu5Ac(a2-3)Gal": {"molecular_target": "Neu5Ac(a2-3)Gal", "how_it_was_run": "as §1"}, "[19]": {"molecular_target": "Neu5Ac(a2-3)Gal(b1-3)GalNAc", "how_it_was_run": "as §1"}, "[20]": {"molecular_target": "Neu5Ac(a2-3)Gal(b1-3)GalNAc(b1-3)Gal(a1-4)Gal(b1-4)Glc", "how_it_was_run": "as §1"}, "[21]": {"molecular_target": "Neu5Ac(a2-3)Gal(b1-3)GalNAc(b1-4)[Neu5Ac(a2-3)]Gal(b1-4)Glc", "how_it_was_run": "as §1"}, "[22]": {"molecular_target": "Neu5Ac(a2-3)Gal(b1-3)GalNAc(b1-4)[Neu5Ac(a2-8)Neu5Ac(a2-3)]Gal(b1-4)Glc", "how_it_was_run": "as §1"}, "[23]": {"molecular_target": "Neu5Ac(a2-3)Gal(b1-3)GalNAc6S", "how_it_was_run": "as §1"}, "[24]": {"molecular_target": "Neu5Ac(a2-3)Gal(b1-3)GlcNAc", "how_it_was_run": "as §1"}, "[25]": {"molecular_target": "Neu5Ac(a2-3)Gal(b1-3)GlcNAc(b1-2)Man", "how_it_was_run": "as §1"}, "[26]": {"molecular_target": "Neu5Ac(a2-3)Gal(b1-3)GlcNAc(b1-2)Man(a1-3)[GlcNAc(b1-4)][Neu5Ac(a2-3)Gal(b1-3)GlcNAc(b1-2)Man(a1-6)]Man(b1-4)GlcNAc(b1-4)GlcNAc", "how_it_was_run": "as §1"}, "[27]": {"molecular_target": "Neu5Ac(a2-3)Gal(b1-3)GlcNAc(b1-2)Man(a1-3)[Neu5Ac(a2-3)Gal(b1-3)GlcNAc(b1-2)Man(a1-6)]Man(b1-4)GlcNAc(b1-4)GlcNAc", "how_it_was_run": "as §1"}, "[28]": {"molecular_target": "Neu5Ac(a2-3)Gal(b1-3)GlcNAc(b1-3)Gal(b1-3)GlcNAc", "how_it_was_run": "as §1"}, "[29]": {"molecular_target": "Neu5Ac(a2-3)Gal(b1-3)GlcNAc(b1-3)Gal(b1-4)GlcNAc", "how_it_was_run": "as §1"}, "[30]": {"molecular_target": "Neu5Ac(a2-3)Gal(b1-3)GlcNAc(b1-3)GalNAc", "how_it_was_run": "as §1"}, "[31]": {"molecular_target": "Neu5Ac(a2-3)Gal(b1-3)GlcNAc(b1-4)Gal(b1-4)Glc", "how_it_was_run": "as §1"}, "[32]": {"molecular_target": "Neu5Ac(a2-3)Gal(b1-3)GlcNAc(b1-6)GalNAc", "how_it_was_run": "as §1"}, "[33]": {"molecular_target": "Neu5Ac(a2-3)Gal(b1-3)GlcNAc6S", "how_it_was_run": "as §1"}}, "note": "Some of the results follow."}
{"binder": "B1", "values": [{"measurement": "glycan array binding signal (z-score)", "setting": "[1]", "value": -0.762}, {"measurement": "glycan array binding signal (z-score)", "setting": "[2]", "value": 0.135}, {"measurement": "glycan array binding signal (z-score)", "setting": "[3]", "value": 0.058}, {"measurement": "glycan array binding signal (z-score)", "setting": "GlcNAc(b1-6)GalNAc", "value": -0.312}, {"measurement": "glycan array binding signal (z-score)", "setting": "[4]", "value": 1.58}, {"measurement": "glycan array binding signal (z-score)", "setting": "Kdn(a2-3)Gal(b1-3)GalNAc", "value": -0.16}, {"measurement": "glycan array binding signal (z-score)", "setting": "Kdn(a2-3)Gal(b1-3)GlcNAc", "value": 0.083}, {"measurement": "glycan array binding signal (z-score)", "setting": "Kdn(a2-3)Gal(b1-4)Glc", "value": 0.035}, {"measurement": "glycan array binding signal (z-score)", "setting": "Kdn(a2-3)Gal(b1-4)GlcNAc", "value": -0.958}, {"measurement": "glycan array binding signal (z-score)", "setting": "[5]", "value": -0.426}, {"measurement": "glycan array binding signal (z-score)", "setting": "Kdn(a2-6)Gal(b1-4)GlcNAc", "value": 0.278}, {"measurement": "glycan array binding signal (z-score)", "setting": "[6]", "value": -0.841}, {"measurement": "glycan array binding signal (z-score)", "setting": "[7]", "value": 0.141}, {"measurement": "glycan array binding signal (z-score)", "setting": "Man(a1-2)Man(a1-3)Man", "value": -0.335}, {"measurement": "glycan array binding signal (z-score)", "setting": "[8]", "value": -0.393}, {"measurement": "glycan array binding signal (z-score)", "setting": "[9]", "value": -0.299}, {"measurement": "glycan array binding signal (z-score)", "setting": "[10]", "value": 0.437}, {"measurement": "glycan array binding signal (z-score)", "setting": "[11]", "value": -0.959}, {"measurement": "glycan array binding signal (z-score)", "setting": "[12]", "value": -0.615}, {"measurement": "glycan array binding signal (z-score)", "setting": "[13]", "value": -1.13}, {"measurement": "glycan array binding signal (z-score)", "setting": "Man(a1-3)[Man(a1-6)]Man", "value": 0.753}, {"measurement": "glycan array binding signal (z-score)", "setting": "[14]", "value": -0.245}, {"measurement": "glycan array binding signal (z-score)", "setting": "[15]", "value": 2.06}, {"measurement": "glycan array binding signal (z-score)", "setting": "[16]", "value": 0.139}, {"measurement": "glycan array binding signal (z-score)", "setting": "[17]", "value": -0.23}, {"measurement": "glycan array binding signal (z-score)", "setting": "[18]", "value": -0.601}, {"measurement": "glycan array binding signal (z-score)", "setting": "Man(a1-6)Man", "value": 0.297}, {"measurement": "glycan array binding signal (z-score)", "setting": "Man(b1-4)GlcNAc", "value": -0.55}, {"measurement": "glycan array binding signal (z-score)", "setting": "MurNAc(b1-4)GlcNAc", "value": 0.833}, {"measurement": "glycan array binding signal (z-score)", "setting": "Neu5Ac(a2-3)Gal", "value": -0.477}, {"measurement": "glycan array binding signal (z-score)", "setting": "[19]", "value": -0.276}, {"measurement": "glycan array binding signal (z-score)", "setting": "[20]", "value": 0.822}, {"measurement": "glycan array binding signal (z-score)", "setting": "[21]", "value": -0.049}, {"measurement": "glycan array binding signal (z-score)", "setting": "[22]", "value": -0.425}, {"measurement": "glycan array binding signal (z-score)", "setting": "[23]", "value": -0.533}, {"measurement": "glycan array binding signal (z-score)", "setting": "[24]", "value": 0.2}, {"measurement": "glycan array binding signal (z-score)", "setting": "[25]", "value": 0.268}, {"measurement": "glycan array binding signal (z-score)", "setting": "[26]", "value": 0.06}, {"measurement": "glycan array binding signal (z-score)", "setting": "[27]", "value": -0.322}, {"measurement": "glycan array binding signal (z-score)", "setting": "[28]", "value": -0.752}, {"measurement": "glycan array binding signal (z-score)", "setting": "[29]", "value": 0.011}, {"measurement": "glycan array binding signal (z-score)", "setting": "[30]", "value": -0.742}, {"measurement": "glycan array binding signal (z-score)", "setting": "[31]", "value": -0.342}, {"measurement": "glycan array binding signal (z-score)", "setting": "[32]", "value": -0.237}, {"measurement": "glycan array binding signal (z-score)", "setting": "[33]", "value": 0.976}]}
